Several values for one entry are separate records, joined by “and”; a condition that tells them apart may be missing. Equal entries are not always repeated.
Columns and labels:
HepG2 cells = assay: In vitro cytotoxicity, HepG2 viability (resazurin); type: cell-based, human; details: ratio of IC50 in HepG2 cells to MIC50 against JE2
Description: The in vitro cytotoxicity of the compounds was evaluated by measuring the viability of HepG2 cells, a human liver cell line, following treatment in a dose–response manner, as previously described. […] The efficacy window was calculated as the ratio of IC50 in HepG2 cells to MIC50 against JE2.
To test cytotoxicity with compounds, the human liver cell line HepG2 (ATCC #HB-8065) was used for the assay. HepG2 was cultured in DMEM with 10% fetal bovine serum (FBS) in a 96-well microplate at 37 °C and 5% CO2. HepG2 cells were seeded at a final density of 5 × 10^4 cells/well, and DMEM-containing diluted compounds were added and incubated on the plates at 37 °C in 5% CO2 for 24 h. After that, resazurin (final concentration, 0.1 mg/mL) was added to each well and incubated on the plates at 37 °C in 5% CO2 for 2 h. To detect the fluorescence at 530 nm excitation and 590 nm emission, an Ensight multimode plate reader was used (Revvity, Waltham, MA, USA).

[1] = test system: S. aureus USA300 JE2 expressing GFP in H460 cells; type: cell-based, Staphylococcus aureus; details: Table 2, H460 infection model; text: IC50 HepG2/MIC50 ex vivo
Description: Staphylococcus aureus, including MRSA, can invade host cells and replicate intracellularly, which complicates treatment with current therapies. To evaluate the intracellular antibacterial activities of the selected compounds, the fifteen compounds tested for cytotoxicity were further assessed using a cell infection model based on H460 human lung epithelial cells, which mimic MRSA-mediated pneumonia. H460 cells were infected with the USA300 JE2 expressing green fluorescent protein (GFP) and subsequently treated with the compounds in a dose–response manner, along with three reference antibiotics: vancomycin, linezolid, and erythromycin. After 24 h of incubation, bacterial loads were quantified by measuring GFP fluorescence in each well. MIC50 values determined in the H460 infection model (MIC50 ex vivo) were generally higher than those obtained from the in vitro tests, likely due to either limited compound penetration into host cells or reduced antibacterial effect of the compounds against intracellular bacteria (Figure 3, Table 2). […] These findings underscore the potential of compound 6y as a promising lead for further development as a novel antistaphylococcal agent.
To see the ex vivo antimicrobial activity of the compound, the human lung carcinoma cell line H460 (ATCC #HTB-177) was used. The H460 cells were cultured in RPMI 1640 medium with 10% fetal bovine serum (FBS) and in a 96-well microplate at 37 °C and 5% CO2. Cell lines were cultured for 2 days, until they reached full confluence in the well. S. aureus (USA300-containing and pCM29-encoding GFP) was cultured in CAMHB with 10 µg/mL of chloramphenicol, and bacterial cells were harvested. After washing the bacterial cells with phosphate-buffered saline (PBS) and suspending them in RPMI, infected H460 cells with S. aureus (1 × 10^7 CFU) and incubated them for 2.5 h. Samples were washed three times with PBS. Then, cells were treated with gentamicin (50 µg/mL of gentamicin in RPMI) and incubated for 1 h. Samples were washed with PBS, RPMI-containing diluted compounds were added, and then they were incubated at 37 °C in 5% CO2 for 24 h. To detect the Green fluorescent protein (GFP) signal, an Ensight multimode plate reader and Opera Phenix Plus (Revvity, Waltham, MA, USA) were used.
Ex vivo infection model images were generated using the Opera Phenix Plus high-content imaging system. Images were obtained by a confocal microscope with a 20× water objective lens. To detect the bacteria fluorescence signal (GFP), the Alexa 488 channel (488 nm laser/500–550 filter, Thermo Fisher Scientific, Waltham, MA, USA) was used, and the brightfield channel was used for H460 cell images.
Figure 3 Antibacterial activities of 2-(amino)quinazolin-4(3H)-one derivatives in the H460 infection model. H460 cells were infected with S. aureus USA300 JE strain expressing GFP, followed by treatment with serial dilutions of 2-(amino)quinazolin-4(3H)-one derivatives. After incubation at 37 °C for 24 h with 5% CO2, fluorescence signals of the bacteria were detected at 488 nm/510 nm using a multilabel plate reader.

SMILES | Efficacy Window (IC50 HepG2/MIC50 USA300) (HepG2 cells) | Efficacy Window (IC50 HepG2/MIC50 USA300) [1]
O=c1[nH]c(Nc2cccc(C(F)(F)F)c2)nc2cc(Cl)ccc12 [6r, 7-Chloro-2-((3-(trifluoromethyl)phenyl)amino)quinazolin-4(3H)-one] | 6.9 | 0.4
O=c1[nH]c(Nc2cc(F)cc(F)c2)nc2cc(Cl)ccc12 [6q, 7-Chloro-2-((3,5-difluorophenyl)amino)quinazolin-4(3H)-one] | 39.2 | 
O=c1[nH]c(Nc2cccc(F)c2)nc2cc(Cl)ccc12 [6n, 7-Chloro-2-((3-fluorophenyl)amino)quinazolin-4(3H)-one] | 6.6 | 0.4
O=c1[nH]c(NCc2ccc(Cl)cc2Cl)nc2cc(Cl)ccc12 [6x, 7-Chloro-2-((2,4-dichlorobenzyl)amino)quinazolin-4(3H)-one] | 8.8 | 0.9
O=c1[nH]c(NCc2ccc(F)c(F)c2)nc2cc(Cl)ccc12 [6y, 7-Chloro-2-((3,4-difluorobenzyl)amino)quinazolin-4(3H)-one] | ~ 885 and 885.2 | 
O=c1[nH]c(Nc2cc(Cl)cc(Cl)c2)nc2cc(C(F)(F)F)ccc12 [6k, 2-((3,5-Dichlorophenyl)amino)-7-(trifluoromethyl)quinazolin-4(3H)-one] | 39.0 | 1.7
O=c1[nH]c(Nc2cc(Cl)cc(Cl)c2)nc2cc(Cl)ccc12 [6l, 7-Chloro-2-((3,5-dichlorophenyl)amino)quinazolin-4(3H)-one] | 101.3 | 
O=c1[nH]c(Nc2ccc(Cl)cc2)nc2cc(Cl)ccc12 [6v, 7-Chloro-2-((4-chlorophenyl)amino)quinazolin-4(3H)-one] | 15.0 | 1.1
O=c1[nH]c(Nc2cc(Cl)cc(Cl)c2)nc2c(Cl)cc(Cl)cc12 [6i, 6,8-Dichloro-2-((3,5-dichlorophenyl)amino)quinazolin-4(3H)-one] | 21.8 | 1.5
O=c1[nH]c(Nc2cc(Cl)cc(Cl)c2)nc2cc(Cl)c(Cl)cc12 [6h, 6,7-Dichloro-2-((3,5-dichlorophenyl)amino)quinazolin-4(3H)-one] | 30.3 | 
O=c1[nH]c(Nc2cc(Cl)cc(Cl)c2)nc2ccccc12 [6j, 2-((3,5-Dichlorophenyl)amino)quinazolin-4(3H)-one] | 15.7 | 0.8
O=c1[nH]c(Nc2cccc(Cl)c2)nc2cc(Cl)ccc12 [6u, 7-Chloro-2-((3-chlorophenyl)amino)quinazolin-4(3H)-one] | 4.0 | 0.2
O=c1[nH]c(Nc2cc(Cl)cc(Cl)c2)nc2cc(F)c(F)cc12 [6g, 2-((3,5-Dichlorophenyl)amino)-6,7-difluoroquinazolin-4(3H)-one] | 8.9 | 0.5
O=c1[nH]c(Nc2cc(Cl)cc(Cl)c2)nc2c(Br)cc(Br)cc12 [6f, 6,8-Dibromo-2-((3,5-dichlorophenyl)amino)quinazolin-4(3H)-one] | 8.3 | 1.1
O=c1[nH]c(Nc2cc(Cl)cc(Cl)c2)nc2cc([N+](=O)[O-])ccc12 [6e, 2-((3,5-Dichlorophenyl)amino)-7-nitroquinazolin-4(3H)-one] | 5.9 | 0.1
